The full ranking holds about 33,000 sequences; the median of “E-score (-0.5 to 0.5)” is about -0.015, and the highest 2% start at about 0.3. This is one part of the list.
What follows are sequences tested against T1, Abf1 (UniProt P14164) (assay: PBM E-score (8-mer binding enrichment) (E-score (-0.5 to 0.5)); higher = stronger / more preferred TF binding). Settings: protein concentration: 200 nM; construct: GST-full length.
T1 sequence: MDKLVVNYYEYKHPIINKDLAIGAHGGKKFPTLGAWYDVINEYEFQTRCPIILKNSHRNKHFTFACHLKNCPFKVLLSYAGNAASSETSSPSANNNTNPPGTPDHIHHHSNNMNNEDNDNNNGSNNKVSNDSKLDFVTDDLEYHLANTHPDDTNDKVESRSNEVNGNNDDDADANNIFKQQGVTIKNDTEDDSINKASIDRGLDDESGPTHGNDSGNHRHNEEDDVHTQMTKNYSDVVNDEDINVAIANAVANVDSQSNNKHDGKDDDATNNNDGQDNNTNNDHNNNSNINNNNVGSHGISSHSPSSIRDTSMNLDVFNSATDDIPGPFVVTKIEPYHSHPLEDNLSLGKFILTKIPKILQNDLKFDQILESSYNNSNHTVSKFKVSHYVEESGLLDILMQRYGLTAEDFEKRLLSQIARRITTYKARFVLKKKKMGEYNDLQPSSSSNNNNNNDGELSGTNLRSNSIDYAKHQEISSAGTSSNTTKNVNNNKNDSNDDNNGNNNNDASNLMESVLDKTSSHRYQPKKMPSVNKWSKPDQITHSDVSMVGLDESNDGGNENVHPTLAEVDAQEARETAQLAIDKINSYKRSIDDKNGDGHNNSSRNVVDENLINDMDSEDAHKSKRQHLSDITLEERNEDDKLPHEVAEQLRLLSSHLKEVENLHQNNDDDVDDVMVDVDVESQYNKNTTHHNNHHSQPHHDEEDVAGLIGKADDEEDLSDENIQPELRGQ
Outline: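 For each ungapped eight-base word taken together with its reverse complement, the Universal PBM Analysis Suite assigned an E-score. Binding data came from GST-tagged yeast transcription factors, applied at about 100-200 nM, on universal all-10-mer Agilent arrays made double-stranded by primer extension. Fluorescent anti-GST marked bound protein, and scans were normalised with masliner.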

Sequence	PBM E-score
CAATGGCC	-0.233
CAGTGGGC	-0.0855
CCCCTGCA	-0.383
GACATCAC	0.352
AATGACTC	0.173
CATCACGA	0.0436
CTCTGTCC	-0.189
GACTTGCC	-0.0317
AATGACAG	0.16
ACAAGAGA	0.0342
CTAGGCAA	-0.134
ATACATTC	0.0799
CTTGGATC	-0.0408
ACGCAACT	0.00448
AGGGAAAG	-0.072
GAAGATAA	0.204
CAAGTCAG	-0.306
AACTTAAG	0.0348
CGGTGGAA	-0.176
GACCGATA	0.0548
GAACTGCC	0.0393
ATGGAGTC	0.0131

Sequence	PBM E-score
CCCGATCG	-0.0638
ATCTGCGA	-0.0337
CGCCTGAC	-0.063
GTCGAGCA	-0.172
ATTCCCTG	-0.0922
ACTGTGGA	-0.172
AGGGAGGA	-0.187
GATCCGCC	-0.0516
AAGCGCAA	0.0496
AGACCAGA	-0.0695
GTAGCTAC	0.156
AATGGTCC	-0.0212
CCGCCTAG	-0.118
AGCAGTAG	-0.164
CGGAACTA	-0.0591
ATTGCTAA	0.175
CACATTAG	-0.0502
GAATATCC	0.0475
GGATATCC	0.197
AGACGACT	0.125
GGGTATAA	-0.139
CTGACTAA	0.0088

Sequence	PBM E-score
CGGTAGCC	0.0656
ACATTCTA	0.091
AACCGTGC	0.306
CCAATAGA	-0.0293
CGATACCA	0.018
ATTGTTGG	0.119
AGTGGGAA	0.00667
CACTCTGA	0.00475
CAGTTCGA	-0.0806
GAAGAATC	-0.058
CTGTATCA	0.0736
GAGGCTGC	-0.259
CGAGCCCC	-0.243
GACTACCA	-0.0833
CCGGGTAA	0.141
GCAGATAC	0.0399
CTGATATA	0.107
GTTCATCA	0.142
AGCACTAG	0.0299
AGCTGACT	-0.0133
CTGTAGTA	0.146
CGATCACC	0.0211

3 consecutive entries already listed:
Sequence	PBM E-score
GCAGATAC	0.0399
CTGATATA	0.107
GTTCATCA	0.142

Some values from the results shown.
In PBM E-score, CAATGGCC is entered as -0.233
In PBM E-score, CGATCACC is entered as 0.0211

(listing goes on)

Sequence	PBM E-score
ACGACTCT	0.15
CTGCGAAA	0.0374
CATCTGGA	0.0204
AACGTGCA	0.0844
GATAGCCC	-0.158
CCGGCGTA	0.0451
GATTTTTA	0.119
CCTTCGAG	-0.0998
GGTGAGTA	-0.0429
AGCAGCGC	-0.127
CCAGCGTC	-0.282
CACTCATC	0.175
CGCGCCAC	-0.0324
AGACCCAA	-0.264
AGTAGCAA	0.185
CAAAACCC	-0.0399
AGACCACG	-0.281
GTGGAAAA	0.0979
GTGCGAAA	0.0843
AGGACTTC	0.0132

Reference: the supplement of paper PMC3334620
